Measured values reported in the supplement of paper PMC8007513.
The list shows a part of the results. Single values are uncertain, as repeats are few or missing.

Test system: Saccharomyces cerevisiae BY4743
Assay: growth (OD600) relative to untreated control; higher = less growth inhibition
Conditions: compound concentration: 133 uM; 20 h
Experimental: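 NMCCC compounds (133 uM, no IPBC) tested alone against Saccharomyces cerevisiae BY4743 in YPD, 96-well plates, starting OD600 ~0.1. Growth was read as OD600 at 20 h and expressed as % of the untreated control. Single pass.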

Row | Structure (SMILES) | growth [%]
1 | CCc1cc2c(Nc3cccc(O)c3)nc(C)nc2s1 | 98.6
2 | CCc1ccc(OCC(=O)NC2CCCCC2)c(-n2cnnc2)c1 | 104
3 | CC(=O)NC1=CC=C(C=C1)C(=O)CO\C2=C\O\C(=C/C2=O)CN3CCSCC3 | 108
4 | O=C(CCC\C1=N\[S](=O)(=O)C2=CC=CC=C2N1)OCC3=CC=CC=C3C#N | 105
5 | O=C(CCC(=O)N1CCOc2ccc(Cl)cc21)NCC1CCCO1 (stereo not drawn) | 89.8
6 | O=C(CN(c1cc(C(F)(F)F)ccc1Cl)S(=O)(=O)c1ccccc1)N1CCOCC1 | 105
7 | O=C(c1cc[nH]n1)N1CCc2sccc2C1 | 91.3
8 | Cc1c(CCO)c(O)oc2nnc(-c3ccccc3)c1-2 | 107
9 | COc1cc(CNC(=O)c2ncoc2-c2cccs2)cc(OC)c1OC | 102
10 | Cc1nnc(SC(C)C(=O)c2c[nH]c3ccccc23)s1 (stereo not drawn) | 101
11 | CCN(C(=O)Nc1cccc(C(C)=O)c1)c1nc(-c2ccc(C)cc2)cs1 | 89.2
12 | COc1ccc(F)cc1-c1csc(Cc2csc(C)n2)n1 | 96.7
13 | O=C(Nc1ccccc1OC(F)F)c1ccc(NC2CC2)nc1 | 98.7
14 | CCOC(=O)c1c(C)c(-c2ccccc2)n(CC(=O)NCCN2CCCCC2C)c1C (stereo not drawn) | 117
15 | CCOC1=CC=C(NC(=O)CS\C2=C(/C#N)C(CC(=O)N2)C3=CC=CS3)C=C1 (stereo not drawn) | 94.9
16 | Cc1ccc(N(CCC#N)C(=O)CSc2nnc3c(Cl)cc(Cl)cn23)cc1 | 100
17 | CCCCn1nc(C)c(C(=O)NC(c2nc3ccccc3[nH]2)C(C)C)c1Cl (stereo not drawn) | 111
18 | Cc1ccc(-c2nc(CC(=O)OCC(=O)c3ccc[nH]3)cs2)cc1 | 103
19 | CCOC(=O)C(Sc1nnc(C(F)(F)F)n1C)c1ccccc1 (stereo not drawn) | 106
20 | CCCCn1c(=O)[nH]c2nc3cc(NC(C)=O)ccc3nc2c1=O | 103
21 | Cc1ccc(-c2ccc(CCC(=O)Nc3ccc(C(N)=O)cc3)o2)cc1C | 97.9
22 | CC(C)C(CNS(=O)(=O)c1ccc2c(c1)CCCC2)N1CCOCC1 (stereo not drawn) | 113
23 | CN1\C=C(/C(=O)N(C)C1=O)[S](=O)(=O)NC2(C)CC[S](=O)(=O)C2 (stereo not drawn) | 117

3 structures from above, arranged by SMILES length, high to low:
Row | Structure (SMILES) | growth [%]
23 | CN1\C=C(/C(=O)N(C)C1=O)[S](=O)(=O)NC2(C)CC[S](=O)(=O)C2 (stereo not drawn) | 117
22 | CC(C)C(CNS(=O)(=O)c1ccc2c(c1)CCCC2)N1CCOCC1 (stereo not drawn) | 113
5 | O=C(CCC(=O)N1CCOc2ccc(Cl)cc21)NCC1CCCO1 (stereo not drawn) | 89.8
